PubChem BioAssay AID1259405, NCATS, 2018

Assay: 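Mouse-designed siRNAs used to find CHO productivity engineering targets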 (primary screen)
System: Chinese hamster CHO-K1 ovary cells with stable secreted eGFP expression
Reagent: single siRNA against mouse genes, 0.8 pmol siRNA per well (2 µl of 400 nM stock)
Duration: 3 days
Read-out: 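Percent of the per-plate non-targeting control median for intracellular GFP per well by laser scanning cytometry and for cell viability by ATP luminescence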
Scale: GFP, % of control: higher = more GFP per well, higher productivity; viability (ATP), % of control: higher = more viable cells (more ATP)
Hit rule: 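a knock-down is called active if GFP reaches 120% or more of non-targeting control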
Shown is a random part of about 50,000 reagents. About 4,000 of all reagents (8%) count as active. 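Mouse siRNA library applied to hamster cells; one well for each siRNA.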 Reagents against one gene are numbered here.

| GFP, % of control | viability (ATP), % of control | Call | target | reagent no. |
| --- | --- | --- | --- | --- |
| 58 | 46.8 | inactive | Nck1 | 1 |
| 74.6 | 64.4 | inactive | Nck1 | 2 |
| 68.1 | 70.6 | inactive | Nck1 | 3 |
| 58.1 | 56.8 | inactive | Vmn2r10 | 1 |
| 68.1 | 69.4 | inactive | Vmn2r10 | 2 |
| 41.5 | 66.3 | inactive | Vmn2r10 | 3 |
| 53.6 | 59.8 | inactive | Cnpy1 | 1 |
| 57.8 | 57.3 | inactive | Cnpy1 | 2 |
| 51.8 | 58.3 | inactive | Cnpy1 | 3 |
| 43.6 | 49.1 | inactive | Or2y1c | 1 |
| 85.5 | 52.1 | inactive | Or2y1c | 2 |
| 68.3 | 57.2 | inactive | Or2y1c | 3 |
| 59 | 92.1 | inactive | Ccdc82 | 1 |
| 22.3 | 19.8 | inactive | Ccdc82 | 2 |
| 96.6 | 72.6 | inactive | Ccdc82 | 3 |
| 78.7 | 52.6 | inactive | Or2t47 | 1 |
| 94.3 | 44.7 | inactive | Or2t47 | 2 |
| 22.2 | 79.4 | inactive | Or2t47 | 3 |
| 103 | 52 | inactive | Or8k28 | 1 |
| 15.7 | 36.6 | inactive | Or8k28 | 2 |
| 84.7 | 114 | inactive | Or8k28 | 3 |
| 50.2 | 57.3 | inactive | Rock2 | 1 |
| 72.3 | 45.4 | inactive | Rpl29 | 1 |
| 87.4 | 114 | inactive | Rpl29 | 2 |
| 46.9 | 37.8 | inactive | Rpl29 | 3 |
| 82.9 | 103 | inactive | Pf4 | 1 |
| 69.4 | 101 | inactive | Pf4 | 2 |
| 77 | 68.6 | inactive | Pf4 | 3 |
| 45.6 | 32.4 | inactive | Ppp1r1b | 1 |
| 107 | 98.7 | inactive | Ppp1r1b | 2 |
| 84.7 | 68.6 | inactive | Ppp1r1b | 3 |
| 56.5 | 85.2 | inactive | Pi4kb | 1 |
| 79.4 | 45.9 | inactive | Vmn1r19 | 1 |
| 123 | 74.2 | active | Vmn1r19 | 2 |
| 68.3 | 90.3 | inactive | Vmn1r19 | 3 |
